The other results are listed elsewhere or left out.
Molecular target: OsWRKY34 (Oryza sativa, UniProt Q0JBA9 1-250)
Experiment: protein-binding microarray (RPBM); PBS, 2% BSA, 51.3 ng/ul salmon testes DNA, 50 uM zinc acetate, 200 nM TF, 25 C, 1 h; high values mean tight binding
Conditions: protein: recombinant; tags: N-terminal polyhistidine and DsRed monomer fusion (pET32a); label: CyDye5-dUTP incorporated in the synthesized complementary strand; 3' TTTTT single-stranded linker to array surface; dsDNA, one strand shown
Method in brief: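 The binding signal is fluorescence intensity per feature, in arbitrary units, read on an Axon 4000B scanner. Polyhistidine- and DsRed-tagged transcription factors (N-terminal fusions) from E. coli BL21-CodonPlus were purified on Ni–NTA and applied at 200 nM for 1 h at 25 °C to a double-stranded, BSA-blocked custom Agilent array in buffer with 50 µM zinc acetate.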

Chains of the proteins cited; added tags and fusions are not shown.
UniProt Q0JBA9, entry or part of it: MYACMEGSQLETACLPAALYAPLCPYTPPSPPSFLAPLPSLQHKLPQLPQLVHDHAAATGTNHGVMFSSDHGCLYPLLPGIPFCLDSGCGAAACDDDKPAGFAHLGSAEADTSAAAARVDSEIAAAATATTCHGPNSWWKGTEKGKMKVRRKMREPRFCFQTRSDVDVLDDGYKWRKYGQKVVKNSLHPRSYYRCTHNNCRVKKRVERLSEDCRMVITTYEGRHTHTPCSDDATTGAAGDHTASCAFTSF

Compared with “TGTGCTATGTTATTGGTTTCACTATTCACGTACTATGCTTCGGAGTCACCTAGTGCAG”, “TTTCTTCTTCTTTGTTGTTGTTGTTGTTGTGTGTTCTTCTCGGAGTCACCTAGTGCAG” is higher in binding signal: 10900 fluorescence intensity (a.u.) for the first, 12000 fluorescence intensity (a.u.) for the second.

Going from “GGGCATTGAGTGGTGGGGACGTGTGGGAGGCAGGCGGAGACGGAGTCACCTAGTGCAG” to “ACTATTTTATACCCACATTTCTCTCTCTCTCTTGATTGTACGGAGTCACCTAGTGCAG”, the binding signal falls from 9540 fluorescence intensity (a.u.) to 9000 fluorescence intensity (a.u.).

Compared with “GGAGGGGTTGGAAAAATTCGGTGTTCGTGGCCGCCTTCACCGGAGTCACCTAGTGCAG”, “ACATATTTAAAAAAGTCAACGACGTCAAATATTTAGGGGACGGAGTCACCTAGTGCAG” is lower in binding signal: 13400 fluorescence intensity (a.u.) for the first, 8680 fluorescence intensity (a.u.) for the second.

Compared with “ACCGGCCCGCAGCTCCGGTAGCTTTTCTCTTCCTTTTCGCCGGAGTCACCTAGTGCAG”, “ATTCCTGTCAGAATTCTATATTTTTCCTATTTCTCCGTTTCGGAGTCACCTAGTGCAG” is lower in binding signal: 10600 fluorescence intensity (a.u.) for the first, 9320 fluorescence intensity (a.u.) for the second.

Compared with “CTCTGCTGCTTCCTCTTCTCCCTCTCCATCGCCGTCGCCGCGGAGTCACCTAGTGCAG”, “CCAACCTCTCTGCACAAACATCCATCCATCCATCCATTTGCGGAGTCACCTAGTGCAG” is higher in binding signal: 8410 fluorescence intensity (a.u.) for the first, 8440 fluorescence intensity (a.u.) for the second.

Going from “ATCATTTCTGCAAGTGCATATTGTTCTGCTGCTCCTTTTGCGGAGTCACCTAGTGCAG” to “CTCTCTGAAATTTTCTCGGATTTTTTGGAGCTCAATTCCTCGGAGTCACCTAGTGCAG”, the binding signal rises from 8950 fluorescence intensity (a.u.) to 9100 fluorescence intensity (a.u.).

Compared with “TTCATTTCTGTTCCATTTCCCATCCATCATATCGCCTCGTCGGAGTCACCTAGTGCAG”, “ATATATATATATATATATATATATATATATATGCGCAGAGCGGAGTCACCTAGTGCAG” is lower in binding signal: 9280 fluorescence intensity (a.u.) for the first, 9140 fluorescence intensity (a.u.) for the second.

First: GCCGTCTGCTGCATCTATCACAAACCTGACCCTAGTTACCCGGAGTCACCTAGTGCAG
Second: TTTGCGCTCCGATTTCGCTCGCTCTCCGTGCCAACGCCGCCGGAGTCACCTAGTGCAG
The binding signal of the first is higher: 9530 fluorescence intensity (a.u.) for the first, 8150 fluorescence intensity (a.u.) for the second.

First: ATTGACATATTTCTACCCGCATAGCTAGTTAAAATTTCCACGGAGTCACCTAGTGCAG
Second: GGCCTATTCCGATTCCGACTTCCACCCTTTCGTTTTGGTACGGAGTCACCTAGTGCAG
The binding signal of the first is lower: 8200 fluorescence intensity (a.u.) for the first, 10200 fluorescence intensity (a.u.) for the second.

First: TAGCAACATCTTATCAAGTTATTCTTGCCATACTCTCTCCCGGAGTCACCTAGTGCAG
Second: TTCTGGTCCTGAACTCCGCCGTATTACTTCTGATCATCTCCGGAGTCACCTAGTGCAG
The binding signal of the first is lower: 9030 fluorescence intensity (a.u.) for the first, 10300 fluorescence intensity (a.u.) for the second.

Going from “TTCTTTTCAGTGGTTGGGTTTGGACGATTAGCCAAATGTACGGAGTCACCTAGTGCAG” to “CCCACTCCACCACTGGCCCCTACAGCGTCATTGCAAGAATCGGAGTCACCTAGTGCAG”, the binding signal falls from 8620 fluorescence intensity (a.u.) to 8310 fluorescence intensity (a.u.).

Compared with “CCACGCGTCCCTCGACCGCACCGCCTCCTAGCCGCCGTCGCGGAGTCACCTAGTGCAG”, “TCATTTATTCACATGTCTTTTCATTTTGCAACCAAATTTACGGAGTCACCTAGTGCAG” is higher in binding signal: 9070 fluorescence intensity (a.u.) for the first, 11600 fluorescence intensity (a.u.) for the second.

Going from “CTCTCTCACACACACTCCCTCTATATATATTTGTGCGCGCCGGAGTCACCTAGTGCAG” to “CTGTATTCATTAGGGTGGGACTGTATACTATAGTTATTATCGGAGTCACCTAGTGCAG”, the binding signal rises from 12700 fluorescence intensity (a.u.) to 15700 fluorescence intensity (a.u.).

Compared with “ACTACATACGGAGTACATGTCAAATCCTCTGCGCAAAATCCGGAGTCACCTAGTGCAG”, “AGAAAAACATCATCTTTGGCCACTACCTGCATCTCCACGTCGGAGTCACCTAGTGCAG” is higher in binding signal: 8360 fluorescence intensity (a.u.) for the first, 9000 fluorescence intensity (a.u.) for the second.

Going from “ATGGCGAAAATGGGAGTGGGGAGGAGAAAGGTGGTGGGGCCGGAGTCACCTAGTGCAG” to “ACTCCACTCCACCGCCGCCGCCTATATAACCCACCTCCACCGGAGTCACCTAGTGCAG”, the binding signal rises from 8490 fluorescence intensity (a.u.) to 10100 fluorescence intensity (a.u.).

Compared with “CCACTCACCCCTAACCCTAGCCGCTGTCGCCCGCCTCCCCCGGAGTCACCTAGTGCAG”, “TGTTCGCACCGCTACTGATGTCCAGCTTCCAGCCGCTCACCGGAGTCACCTAGTGCAG” is lower in binding signal: 8660 fluorescence intensity (a.u.) for the first, 8620 fluorescence intensity (a.u.) for the second.

First: TAGGGGTATTTAGATTTTTTTTATGATTTATTAACTAGTACGGAGTCACCTAGTGCAG
Second: CATGTCGCATGATCTTTTTCGCCCCTACACCATCAACAACCGGAGTCACCTAGTGCAG
The binding signal of the first is lower: 9820 fluorescence intensity (a.u.) for the first, 10200 fluorescence intensity (a.u.) for the second.

First: AAATAGTTCACAAAGTTCAGTCATTAGTTGGGTTTCTAGTCGGAGTCACCTAGTGCAG
Second: CAACCGCTTCGTTCTCCGTTGGTGTATAGTTGCCGCAGCACGGAGTCACCTAGTGCAG
The binding signal of the first is higher: 9060 fluorescence intensity (a.u.) for the first, 8530 fluorescence intensity (a.u.) for the second.

First: TCTCTCGGTCTCCACCGGAATTTCCCCGAAATACCCTTGCCGGAGTCACCTAGTGCAG
Second: ACGACGGTTGTCTGTCTGTCTGTCTGTCATGTTTTGTAGTCGGAGTCACCTAGTGCAG
The binding signal of the first is higher: 8280 fluorescence intensity (a.u.) for the first, 8260 fluorescence intensity (a.u.) for the second.

Compared with “CATATGGGCACGCGGTAGCTGAATTGTAGTTTCATCCATCCGGAGTCACCTAGTGCAG”, “TTCCCGCCTACATTTTCGCCACGTCAGCGATCCGCACCGACGGAGTCACCTAGTGCAG” is higher in binding signal: 8060 fluorescence intensity (a.u.) for the first, 8550 fluorescence intensity (a.u.) for the second.

Compared with “AAATACTCCATATTTATTTGTTTCTGACTTTTCAGTGCATCGGAGTCACCTAGTGCAG”, “ACGCTGGCGCCGCTCGCGCCACCGCACCCGCACCGCCATGCGGAGTCACCTAGTGCAG” is lower in binding signal: 9010 fluorescence intensity (a.u.) for the first, 8700 fluorescence intensity (a.u.) for the second.

Compared with “GGCTCTAAAGACACTCATTCCTACAGTGCAAGTATCCTATCGGAGTCACCTAGTGCAG”, “CCACCGTTTCCACCCAGATTCGCGCCCGCCACTTCCGACTCGGAGTCACCTAGTGCAG” is higher in binding signal: 8700 fluorescence intensity (a.u.) for the first, 12500 fluorescence intensity (a.u.) for the second.

First: CTCCTTGACTAATGTTGCGTTCTCTAATCTCCCTCTGACTCGGAGTCACCTAGTGCAG
Second: ACACTCTCCGACGATATTTTCCTTCTCTGTTTTTTTTTTCCGGAGTCACCTAGTGCAG
The binding signal of the first is lower: 9450 fluorescence intensity (a.u.) for the first, 16200 fluorescence intensity (a.u.) for the second.

First: AGCGTTGACCATACTTAAATCACAGTTTTCTTTTCTTTTTCGGAGTCACCTAGTGCAG
Second: AGACACATCTAGCAGGCAAACCATCACTTTACCCAGTAATCGGAGTCACCTAGTGCAG
The binding signal of the first is higher: 21800 fluorescence intensity (a.u.) for the first, 8050 fluorescence intensity (a.u.) for the second.

Compared with “CTATCTACTACTGCTCGAGCTCAACCAGCATTTCCAGCTTCGGAGTCACCTAGTGCAG”, “TGTTTGACCGTTCGTCTTATTAAAATTTTTTTGTGAAATACGGAGTCACCTAGTGCAG” is lower in binding signal: 9750 fluorescence intensity (a.u.) for the first, 8610 fluorescence intensity (a.u.) for the second.

First: GGTGCTGCCACAGCTCATCTACCAGGTCTACACATTTACCCGGAGTCACCTAGTGCAG
Second: ACTTTGTCCACCCATTTTGTGTTGTCTCGTTGTTTCTATTCGGAGTCACCTAGTGCAG
The binding signal of the first is lower: 8310 fluorescence intensity (a.u.) for the first, 17000 fluorescence intensity (a.u.) for the second.

Going from “ACCGATGACGCCGTCCGCCACCTGCTTAAACCCGCGGCCTCGGAGTCACCTAGTGCAG” to “GACCACCCACCGGGCCCGCGTGCGCCGCGACACACGGCGCCGGAGTCACCTAGTGCAG”, the binding signal rises from 8390 fluorescence intensity (a.u.) to 9420 fluorescence intensity (a.u.).

Source: paper PMC7819943, “Rice protein-binding microarrays: a tool to detect cis-acting elements near promoter regions in rice”
